Data reported in PubChem BioAssay AID1671190 (National Center for Advancing Translational Sciences (NCATS), 2021).
“And” between values parts separate entries of the source, which are not always exact repeats. Identical values can stand only once. The campaign covered roughly 580,000 compounds. About 6,100 (1.1%) were called active. The inconclusive results got no clear call from the source; some entries with a clear call stand among them for comparison. Calls come from the whole dose curve; as a rule, active = well fitted inhibition curve with a large enough effect; inconclusive = small, poorly fitted or top-dose-only effect, or another doubt; inactive = no such curve, though single readings can be large or run the other way. A potency beside an inconclusive call is a rough fit, not a confirmed value.
% is set by controls: 0 for no effect and ±100 for the full control effect; potency is the fitted concentration of half-maximal effect.

Chains of the proteins cited; added tags and fusions are not shown. Lines headed by an entry give the natural chain unless they say otherwise; changes in a name come on top.
UniProt P18054: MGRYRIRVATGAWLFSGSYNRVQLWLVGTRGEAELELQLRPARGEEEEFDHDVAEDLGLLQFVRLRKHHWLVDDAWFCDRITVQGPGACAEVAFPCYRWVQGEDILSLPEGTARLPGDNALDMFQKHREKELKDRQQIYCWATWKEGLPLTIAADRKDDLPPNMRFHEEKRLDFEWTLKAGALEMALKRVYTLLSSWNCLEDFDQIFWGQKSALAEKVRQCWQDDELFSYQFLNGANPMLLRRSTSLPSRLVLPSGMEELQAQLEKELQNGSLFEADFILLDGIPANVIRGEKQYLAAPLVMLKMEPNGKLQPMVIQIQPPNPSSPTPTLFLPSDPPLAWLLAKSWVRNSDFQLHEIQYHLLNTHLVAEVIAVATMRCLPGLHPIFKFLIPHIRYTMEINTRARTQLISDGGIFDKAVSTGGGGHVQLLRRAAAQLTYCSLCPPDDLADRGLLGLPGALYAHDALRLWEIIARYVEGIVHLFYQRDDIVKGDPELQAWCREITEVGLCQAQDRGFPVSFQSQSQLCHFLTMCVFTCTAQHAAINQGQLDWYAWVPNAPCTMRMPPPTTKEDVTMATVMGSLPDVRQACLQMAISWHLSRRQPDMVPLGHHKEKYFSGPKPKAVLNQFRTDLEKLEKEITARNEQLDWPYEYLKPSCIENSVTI

These compounds were tested against Polyunsaturated fatty acid lipoxygenase ALOX12 (Homo sapiens) (UniProt P18054) (assay: Primary qHTS assay for inhibitors of human arachidonate 12S-lipoxygenase (ALOX12): Round 2). Settings: purified 12hLO, xylenol orange hydroperoxide absorbance; activity change, negative = inhibition: at 108 µM (top of the series) unless noted.
Outline: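 Purified human 12hLO (150 nM final) in 25 mM Hepes, 0.01% Triton X-100, pH 7.0 was preincubated 15 min at room temperature with compound. Then 40 uM arachidonic acid was added, 30 min. Hydroperoxide was read by Fe-XO absorbance ratio 573/405 nm.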
With `CCOc1cc(CNCC(O)c2ccccc2)cc(Cl)c1OC` (stereo unspecified) the Potency was “inactive”.
With `CCN1CCN(C(=O)c2ccc(-n3nc(C)c(-c4ccc(C)cc4)c3NC(C)=O)cc2)CC1` the Potency was inconclusive: 44.7 µM [inhibitor, partial curve, poor fit].
With `COc1ccc(OC)c(C(=O)/C=C/c2cccnc2)c1` the Potency was inconclusive: 56.2 µM [inhibitor, partial curve, poor fit].
`COc1cc(NC(=O)C2C3CCC(O3)C2C(=O)O)cc(OC)c1` (stereo unspecified) was tested, and the Potency was inconclusive: 3.55 µM [inhibitor, full curve, poor fit].
In the case of `Cc1ccc(NC(=O)C2CCN(c3nnc(-n4cccc4)s3)CC2)cc1Cl`, the Potency is reported as “inactive and inconclusive: 35.5 µM [inhibitor, partial curve, poor fit]”.
`O=[S+]([O-])(Nc1ccccc1)c1ccc2c(c1)OCCN(Cc1ccsc1)C2` was tested, and the Potency was inconclusive: 70.8 µM [inhibitor, partial curve, poor fit].
In the case of `CN(C)S(=O)(=O)N(CC(=O)Nc1ccc(F)cc1F)c1ccccc1`, the Potency is reported as inconclusive: 112 µM [inhibitor, single point].
`Nc1nccnc1C(=O)NCc1ccc(O)cc1` was tested, and the Potency was inconclusive: 6.31 µM [inhibitor, full curve].
In the case of `CNCC(O)c1ccc(O)c(O)c1` (stereo unspecified), the Potency is reported as inconclusive: 5.62 µM [inhibitor, full curve, poor fit].
`O=C(Nc1ccc2nn(-c3ccccc3)nc2c1)c1ccc2c(c1)OCO2` was tested, and the activity change, negative = inhibition was inconclusive: -31.3% [inhibitor].
In the case of `CN(CCCCOc1ccc(F)cc1)Cc1ccccc1`, the Potency is reported as active: 1.12 µM.
In the case of `CCc1oc2ccccc2c1/C=C/C(=O)NC1CCCC1`, the Potency is reported as “inactive”.
For `O=C1NC(c2cc(Cl)cc([N+](=O)[O-])c2O)Nc2ccccc21` (stereo unspecified), the Potency was “inactive”.
With `COc1ccc(S(=O)(=O)Nc2ccc(S(=O)(=O)N3CCCCC3)cc2)cc1C` the Potency was “inactive”.
In the case of `O=c1c(-c2cccs2)nc2cnc(N3CCNCC3)nc2n1C1CC1`, the Potency is reported as inconclusive: 31.6 µM [inhibitor, partial curve, poor fit].
With `COC(=O)Nc1ccc2ccccc2c1` the Potency was “inactive”.
For `O=C(c1cc(COc2cccc(F)c2)[nH]n1)N1CCC(N2CCSCC2)CC1`, the Potency was “inactive”.
In the case of `Cc1ccc(S(=O)(=O)N2CCN=C2SCc2ccccc2)cc1`, the Potency is reported as “inactive”.
For `Cc1ccc2c(c1)c(=O)c(C(=O)c1ccncc1)cn2CC(=O)Nc1ccc(C(C)C)cc1`, the Potency was inconclusive: 70.8 µM [inhibitor, partial curve, poor fit].
In the case of `NS(=O)(=O)c1ccc(-c2ccc(/C=N/Nc3ccc([N+](=O)[O-])cc3)o2)cc1`, the Potency is reported as inconclusive: 100 µM [inhibitor, single point].
`COc1cccc(NC(=O)Cn2nc3c4ccccc4n(Cc4cccc(F)c4)cc-3c2=O)c1` was tested, and the Potency was inconclusive: 141 µM [inhibitor, single point].
For `CC(C)=CCC/C(C)=C/CNC(=O)C[C@H]1C[C@H](C(=O)N2CCOCC2)[C@@]2(C)c3[nH]c4ccc(Cl)cc4c3CCN2C1=O`, the Potency was inconclusive: 50.1 µM [inhibitor, partial curve, poor fit].
In the case of `CCOC(=O)C1=NNC2(CC(=O)N(c3cc(C)cc(C)c3)C2=O)C1` (stereo unspecified), the Potency is reported as inconclusive: 126 µM [inhibitor, single point].
In the case of `O=[N+]([O-])c1ccccc1-c1ccc(CN2CCN(c3ccccc3)CC2)o1`, the Potency is reported as inconclusive: 39.8 µM [inhibitor, partial curve, poor fit].
For `O=C(NC1=NCCS1)C1COc2ccccc2O1` (stereo unspecified), the Potency was “inactive”.
`CCc1ccc2c(c1)-c1ccccc1S(=O)(=O)N2CC(=O)N1CCCCCC1` was tested, and the Potency was inconclusive: 44.7 µM [inhibitor, partial curve, poor fit].
For `O=C(O)CCC(=O)Nc1ccc2[nH]cc(C(C(=O)O)N3CCN(c4ccc(F)cc4)CC3)c2c1` (stereo unspecified), the Potency was “inactive”.
`Cn1c(SCC(=O)O)nc2sc3c(c2c1=O)CCC3` was tested, and the Potency was “inactive”.
`COC(=O)C1=C(C)N(Cc2ccc(C(F)(F)F)cc2)C(=NCc2ccccc2C(F)(F)F)NC1c1ccc(C(F)(F)F)cc1` (stereo unspecified) was tested, and the Potency was inconclusive: 79.4 µM [inhibitor, single point].
With `O=P(O)(O)c1ccccc1OCCCCCOc1ccccc1P(=O)(O)O` the Potency was inconclusive: 5.62 µM [inhibitor, full curve, poor fit].
In the case of `Cc1cc(C)cc(NC(=O)C2CCN(c3nccs3)CC2)c1`, the Potency is reported as “inactive”.
For `CN(C)c1ccc(/C=C2\c3ccccc3C(=O)N2c2ccccc2)cn1`, the Potency was inconclusive: 70.8 µM [inhibitor, partial curve, poor fit].
With `O=C(Nc1ccccc1C(=O)O)c1cncc(Br)c1` the Potency was inconclusive: 50.1 µM [inhibitor, partial curve, poor fit].
For `Cc1ccc(CN2CC(C(=O)Nc3cccc(S(=O)(=O)N4CCCCC4)c3)CC2=O)cc1` (stereo unspecified), the Potency was inconclusive: 89.1 µM [inhibitor, partial curve, poor fit].
`COc1ccc2cc(-c3nc(-c4nonc4N)no3)c(=O)oc2c1` was tested, and the Potency was “inactive”.
For `O=C(Nc1ccc(Cl)c(Cl)c1)C1CCN(C(=O)c2ccco2)CC1`, the Potency was inconclusive: 39.8 µM [inhibitor, partial curve, poor fit].
With `CC(C)C(=O)NCc1ccc(-c2nc3ccccc3s2)cc1` the Potency was inconclusive: 56.2 µM [inhibitor, single point].
For `Cc1n[nH]c(=O)c2c(NC(=O)CSc3nn(-c4ccc(F)cc4)c(=S)s3)oc(C)c12`, the Potency was inconclusive: 44.7 µM [inhibitor, partial curve, poor fit].
For `Cc1ccc(C)c(N=C2CCCN2Cc2ccccc2)c1C#N`, the Potency was “inactive”.
In the case of `O=C(c1[nH]c(C(F)(F)F)nc1-c1ccccc1)N1CCN(c2ncccc2C(F)(F)F)CC1`, the Potency is reported as “inactive”.
For `C[C@H]1[C@@H](NS(=O)(=O)c2ccc(Br)cc2)CC[C@@]23CCCN2C(=O)CCC[C@@H]13`, the Potency was inconclusive: 126 µM [inhibitor, single point].
In the case of `O=C(O)C1(Nc2ccccc2)CCCC1`, the Potency is reported as inconclusive: 25.1 µM [inhibitor, partial curve, poor fit].
In the case of `Cc1ccc(NC(=O)/C=C/c2ccco2)cc1S(=O)(=O)N1CCCCCC1`, the Potency is reported as inconclusive: 50.1 µM [inhibitor, partial curve, poor fit].
For `O=C(C[C@H]1CC[C@@H]2[C@H](COC[C@H](O)CN2Cc2cccc(F)c2)O1)NCc1cccc(F)c1`, the Potency was inconclusive: 50.1 µM [inhibitor, partial curve, poor fit].
For `Cc1cc(SCc2cccc(F)c2)c2ccccc2n1`, the Potency was inconclusive: 35.5 µM [inhibitor, partial curve].
With `COc1ccc(N2CCN(CC(O)COc3ccc(C(C)C)c(C)c3)CC2)cc1` (stereo unspecified) the Potency was active: 15.8 µM.
`NC(=O)c1ccc(NC(=O)COC(=O)c2cc3c(s2)CCC3)cc1` was tested, and the Potency was “inactive”.
`Cc1ccc(CNCCN2CCCC2)cc1C` was tested, and the Potency was inconclusive: 39.8 µM [inhibitor, partial curve].
In the case of `Fc1ccc(COc2ccccc2CNCc2ccncc2)cc1`, the Potency is reported as “inactive”.
`Cc1nc(/C=C/c2ccc(Cl)cc2)sc1C(=O)O` was tested, and the Potency was inconclusive: 31.6 µM [inhibitor, partial curve].
With `CCCOc1ccc(N2C(=O)CC(NCCNc3ccc([N+](=O)[O-])cn3)C2=O)cc1` (stereo unspecified) the Potency was “inactive”.
With `COc1cccc2[nH]c(C(=O)NCCCc3nnc4ccccn34)cc12` the Potency was “inactive”.
With `Cn1c(SCc2nc(N)nc(Nc3ccc(F)cc3)n2)nnc1C1CC1` the Potency was “inactive”.
For `COc1ccccc1C(=O)COC(=O)CNS(=O)(=O)c1ccc(NC(C)=O)cc1`, the Potency was inconclusive: 44.7 µM [inhibitor, partial curve, poor fit].
For `O=C1C(=O)N(Cc2cccnc2)C(c2cccc([N+](=O)[O-])c2)/C1=C(/O)c1ccc2c(c1)OCO2` (stereo unspecified), the Potency was inconclusive: 14.1 µM [inhibitor, full curve].
With `Cc1nn(CC(=O)O)c(C)c1C` the Potency was inconclusive: 2 µM [inhibitor, partial curve, poor fit].
With `COc1ccc(Cn2c(=O)c3ccccc3n3c(-c4cccc(OC)c4O)nnc23)cc1` the Potency was inconclusive: 14.1 µM [inhibitor, full curve, poor fit].
With `CCc1ccc(S(=O)(=O)NCC(=O)O)cc1` the Potency was inconclusive: 39.8 µM [inhibitor, partial curve, poor fit].
`COc1ccc(Nc2nc(-c3ccc([N+](=O)[O-])cc3)nc3ccccc23)cc1` was tested, and the Potency was inconclusive: 17.8 µM [inhibitor, partial curve, poor fit].
With `CCCN1C(=O)CN(C2CCCCC2)C(=O)C1c1ccc(OC)c(OC)c1` (stereo unspecified) the Potency was inconclusive: 141 µM [inhibitor, partial curve, poor fit].
In the case of `O=C(NCc1nnc2ccc(-c3ccccc3)nn12)c1ccc(F)cc1Cl`, the Potency is reported as “inactive”.
For `Cc1ccc(S(=O)(=O)N2C[C@@H]3[C@H]4CC[C@H](C4)[C@@H]3[C@@H](C)[C@@H]2c2ccn([Si](C(C)C)(C(C)C)C(C)C)c2)cc1`, the Potency was inconclusive: 31.6 µM [inhibitor, partial curve, poor fit].
`Cn1ccc(C(=O)N2CCC3(CC2)CC(=O)N(C/C=C/c2ccccc2)C3)n1` was tested, and the Potency was “inactive”.
`Nc1[nH]c(C(=O)c2ccccc2)c(-c2ccccc2C(F)(F)F)c1C(=O)NCc1ccc(F)cc1` was tested, and the Potency was inconclusive: 31.6 µM [inhibitor, single point].
`Fc1ccc(/C=N/c2c(-c3ccc(F)cc3)nc3n2CCS3)cc1` was tested, and the Potency was inconclusive: 8.91 µM [inhibitor, full curve, poor fit].
For `CS(=O)(=O)N1CCN(c2ccc(NC(=O)c3ccc([N+](=O)[O-])o3)cc2)CC1`, the Potency was “inactive”.
